Reference: PubChem BioAssay AID330 (DTP/NCI, 2004)
The list does not hold the whole screen: it gathers tests that were run many times, whatever their T/C, doses with no T/C, and many T/C values between a quarter and a half above the control. Other doses and runs of a compound stand elsewhere. T/C: endpoint of the treated group in % of that of the vehicle group. Some doses have a count of surviving animals in place of a T/C: the source holds a T/C of zero for them, seemingly a mark for toxic or unscored doses. Some doses without a T/C left all or most animals alive at the check, yet need not have been tolerated: the source hardly ever lists a survival T/C far under the control, and the zero likely stands for such cases as well. Survivors were counted at the toxicity check, usually on the fifth day, unless a day is given; later deaths do not show. Schedule codes are those of the source, taken here to give the interval after Q, in days (D) or hours (H), and the number of doses after X. Additions like (4×) stand for listed records that agree. Some entries were tested several times; the values are given in rising order. Where survival is the endpoint, this PubChem deposit counts one and a half times the control or more as active, and values a quarter to a half above the control carry no call in these data; other NCI protocols may use other cut-offs. Some T/C values are followed by the survivors on the day toxicity was checked, most often the fifth; without a count, all were alive then.

System: P388 leukemia ip, CD2F1 mice, survival T/C
Test: NCI In Vivo Anticancer Drug Screen. Data for tumor model P388 Leukemia (intraperitoneal) in CD2F1 (CDF1) mice
Conditions: T/C endpoint: median survival time, higher T/C = longer survival
[1] = dose: 200.0 mg/kg/injection, schedule: Q01DX009 (ip), vehicle: saline with Tween-80
[2] = dose: 50.0 mg/kg/injection, schedule: Q01DX009 (ip), vehicle: Klucel (hydroxypropylcellulose) (HPC)
[3] = dose: 100.0 mg/kg/injection, schedule: Q01DX009 (ip), vehicle: Klucel (hydroxypropylcellulose) (HPC)
[4] = dose: 200.0 mg/kg/injection, schedule: Q01DX009 (ip), vehicle: Klucel (hydroxypropylcellulose) (HPC)
[5] = dose: 240.0 mg/kg/injection, schedule: Q01DX005 (ip), vehicle: saline with Tween-80
[6] = dose: 120.0 mg/kg/injection, schedule: Q01DX005 (ip), vehicle: Klucel (hydroxypropylcellulose) (HPC)
[7] = dose: 400.0 mg/kg/injection, schedule: Q01DX001 (ip), vehicle: saline with Tween-80
[8] = dose: 200.0 mg/kg/injection, schedule: Q01DX005 (ip), vehicle: saline
[9] = dose: 50.0 mg/kg/injection, schedule: Q01DX005 (ip), vehicle: saline with Tween-80
[10] = dose: 100.0 mg/kg/injection, schedule: Q01DX005 (ip), vehicle: saline with Tween-80
[11] = dose: 60.0 mg/kg/injection, schedule: Q01DX005 (ip), vehicle: Klucel (hydroxypropylcellulose) (HPC)
[12] = dose: 240.0 mg/kg/injection, schedule: Q01DX005 (ip), vehicle: Klucel (hydroxypropylcellulose) (HPC)

With `COc1ccc(S(=O)(=O)N=N/C=C2\C=CC=CN2O)cc1OC` the T/C (dose: 50.0 mg/kg/injection, schedule: Q01DX009 (ip), vehicle: saline with Tween-80, evaluated on day 20) was 125 % of control, the T/C (dose: 50.0 mg/kg/injection, schedule: Q01DX009 (ip), vehicle: saline with Tween-80, evaluated on day 30) was 130 % of control and the T/C (dose: 100.0 mg/kg/injection, schedule: Q01DX009 (ip), vehicle: saline with Tween-80, evaluated on day 20) was 138 % of control. For the same molecule, the T/C (dose: 100.0 mg/kg/injection, schedule: Q01DX009 (ip), vehicle: saline with Tween-80, evaluated on day 30) was 140 % of control and the survivor count [1] was 0 of 6 (2×).
`CN(C)CCCNc1cccc2c1C(=O)c1cccc(NCCCN(C)C)c1C2=O` was tested, and the survivor count (dose: 100.0 mg/kg/injection, schedule: Q01DX005 (ip), vehicle: water) was 2 of 3, the survivor count (dose: 100.0 mg/kg/injection, schedule: Q01DX009 (ip), vehicle: water) was 3 of 6 and the survivor count (dose: 120.0 mg/kg/injection, schedule: Q01DX009 (ip), vehicle: saline) was 6 of 6. The survivor count (dose: 200.0 mg/kg/injection, schedule: Q01DX005 (ip), vehicle: water) was 0 of 6, the survivor count (dose: 200.0 mg/kg/injection, schedule: Q01DX009 (ip), vehicle: water) was 0 of 6 and the survivor count (dose: 400.0 mg/kg/injection, schedule: Q01DX009 (ip), vehicle: water) was 0 of 6.
In the case of `COc1cccc(CN2CCCN(/N=C/c3c4c(O)c5c(O)c(C)c6c(c5c3O)C(=O)C(C)(O/C=C/C(OC)C(C)C(OC(C)=O)C(C)C(O)C(C)C(O)C(C)/C=C/C=C(/C)C(=O)N4)O6)CC2)c1` (configuration not stated), the survivor count [1] is reported as 4 of 6.
In the case of `C/C(=N\NC(N)=S)c1ccccc1`, the T/C (dose: 12.5 mg/kg/injection, schedule: Q01DX009 (ip), vehicle: Klucel (hydroxypropylcellulose) (HPC)) is reported as 128 % of control, the survivor count (dose: 25.0 mg/kg/injection, schedule: Q01DX009 (ip), vehicle: Klucel (hydroxypropylcellulose) (HPC)) is reported as 2 of 6 and 3 of 6 and the survivor count [2] is reported as 0 of 6. For the same molecule, the survivor count [3] was 0 of 6, the survivor count [4] was 0 of 6 and the survivor count (dose: 400.0 mg/kg/injection, schedule: Q01DX009 (ip), vehicle: Klucel (hydroxypropylcellulose) (HPC)) was 0 of 6.
In the case of `CC(=O)Nc1ccc(/C=N/NC(=O)CNC(=O)c2ccccc2)cc1`, the survivor count [5] is reported as 6 of 6.
`FC(F)(F)c1ccccc1N=Cc1ccc(C=Nc2ccccc2C(F)(F)F)cc1` was tested, and the survivor count [4] was 6 of 6.
For `NC(=O)c1ccc(NC(=O)/C=C/C(=O)Nc2ccc(C(N)=O)cn2)nc1`, the T/C (dose: 2.5 mg/kg/injection, schedule: Q01DX009 (ip), vehicle: saline with Tween-80) was 136 % of control, the T/C (dose: 5.0 mg/kg/injection, schedule: Q01DX009 (ip), vehicle: saline with Tween-80) was 127 % of control and the survivor count (dose: 10.0 mg/kg/injection, schedule: Q01DX009 (ip), vehicle: saline with Tween-80) was 6 of 6. The survivor count (dose: 40.0 mg/kg/injection, schedule: Q04DX003 (ip), vehicle: saline with Tween-80) was 6 of 6 and the T/C (dose: 2500.0 micrograms/kg/injection, schedule: Q01DX009 (ip), vehicle: saline with Tween-80) was 127 % of control.
`CCCCCCCCCCCCCCCCc1c(C(=O)OC)nc(N)[nH]c1=O` was tested, and the survivor count (dose: 60.0 mg/kg/injection, schedule: Q01DX005 (ip), vehicle: saline with Tween-80) was 3 of 6, the survivor count (dose: 120.0 mg/kg/injection, schedule: Q01DX005 (ip), vehicle: saline with Tween-80) was 3 of 6 and the survivor count [5] was 0 of 6.
With `OC(c1ccccc1)C1CC=CCC1` (configuration not stated) the T/C (dose: 12.5 mg/kg/injection, schedule: Q04DX003 (ip), vehicle: saline with Tween-80) was 139 % of control and the T/C (dose: 100.0 mg/kg/injection, schedule: Q04DX003 (ip), vehicle: saline with Tween-80) was 149 % of control.
`CS/C(=C\c1ccc(C(=O)c2ccc(C)cc2)n1C)S(C)=O` (configuration not stated) was tested, and the survivor count [6] was 6 of 6.
In the case of `CCSC(=S)S(=O)(=O)c1ccc(C)cc1`, the survivor count [3] is reported as 1 of 6 and the survivor count [4] is reported as 0 of 6.
In the case of `COC(=O)c1cc(-c2ccc(OC)cc2)[nH]c(=O)c1C#N`, the survivor count [5] is reported as 1 of 6.
In the case of `CCCCOP(O)(=S)OCCCC.[Sm]`, the survivor count [7] is reported as 6 of 6.
With `O=C(c1ccccc1)c1ccc[n+](Cc2ccccc2)c1` the survivor count [8] was 0 of 6.
With `N#CC1=C(N)CCC1` the survivor count (dose: 25.0 mg/kg/injection, schedule: Q01DX009 (ip), vehicle: saline with Tween-80) was 0 of 6.
For `O=C(O)c1cc2ccccc2c(Br)c1O.O=[N+]([O-])C1CCC(O)C2[N-]CCCC21.[Cu+]`, the survivor count (dose: 25.0 mg/kg/injection, schedule: Q01DX005 (ip), vehicle: saline with Tween-80) was 3 of 6, the T/C [9] was 103, 107 [5 of 6 alive], 123 % of control and the survivor count [9] was 4 of 6. The survivor count [10] was 0 of 6, 1 of 6, 2 of 6 and the survivor count (dose: 200.0 mg/kg/injection, schedule: Q01DX005 (ip), vehicle: saline with Tween-80) was 0 of 6.
For `c1ccc(-c2ncc[nH]2)cc1`, the survivor count [7] was 2 of 6.
`COCCN1CC(=O)N2Cc3ccccc3CN2C(=O)C1` was tested, and the survivor count [10] was 5 of 5.
`C=C(CC(=O)O)C(=O)O` (tested in a mixture with another compound) was tested, and the T/C (dose: 50.0 mg/kg/injection, schedule: Q01DX009 (ip), vehicle: saline with Tween-80) was 125 % of control, the T/C (dose: 100.0 mg/kg/injection, schedule: Q01DX009 (ip), vehicle: saline with Tween-80) was 135 % of control [5 of 6 alive] and the survivor count [1] was 4 of 6.
With `CN(C)CC(CN(C)C)C(=O)c1ccc(Cl)cc1` the survivor count (dose: 50.0 mg/kg/injection, schedule: Q01DX005 (ip), vehicle: saline) was 3 of 6, the survivor count (dose: 100.0 mg/kg/injection, schedule: Q01DX005 (ip), vehicle: saline) was 2 of 6 and the survivor count [8] was 0 of 6.
`[N-]=[N+]=CC(=O)CCC(=O)C=[N+]=[N-]` was tested, and the T/C (dose: 1.5 mg/kg/injection, schedule: Q01DX009 (ip), vehicle: other) was 143 % of control, the T/C (dose: 3.12 mg/kg/injection, schedule: Q01DX007 (ip), vehicle: DMSO) was 140 % of control and the survivor count (dose: 6.25 mg/kg/injection, schedule: Q01DX009 (ip), vehicle: other) was 6 of 6. The survivor count (dose: 12.5 mg/kg/injection, schedule: Q01DX009 (ip), vehicle: other) was 6 of 6, the survivor count (dose: 25.0 mg/kg/injection, schedule: Q01DX009 (ip), vehicle: other) was 6 of 6 and the survivor count (dose: 50.0 mg/kg/injection, schedule: Q01DX009 (ip), vehicle: other) was 6 of 6. For the same molecule, the survivor count (dose: 100.0 mg/kg/injection, schedule: Q01DX009 (ip), vehicle: other) was 3 of 6, the survivor count (dose: 200.0 mg/kg/injection, schedule: Q01DX009 (ip), vehicle: other) was 2 of 6 and the survivor count (dose: 400.0 mg/kg/injection, schedule: Q01DX009 (ip), vehicle: other) was 1 of 6.
For `Nc1ccc(C(=O)c2cccs2)cn1`, the survivor count (dose: 200.0 mg/kg/injection, schedule: Q01DX005 (ip), vehicle: distilled water + alcohol) was 3 of 5.
For `CN(C)C1=NC(N(C)C)=C2C=CC=C12`, the survivor count [11] was 6 of 6, the survivor count [6] was 4 of 6 and the survivor count [12] was 0 of 6.
With `O=C1CC2OCCC3CN4CCC56c7ccccc7N1C5C2C3CC46` (configuration not stated) the survivor count [11] was 0 of 6, the survivor count [6] was 0 of 6 and the survivor count [12] was 0 of 6.
In the case of `O=C1c2ccccc2C(=O)C1c1cc(Cl)c(O)c(Cl)c1`, the T/C (dose: 400.0 mg/kg/injection, schedule: Q04DX002 (ip), vehicle: saline) is reported as 127 % of control [5 of 6 alive].
With `O=[N+]([O-])c1ccc([S][Pb]([c]2ccccc2)([c]2ccccc2)[c]2ccccc2)cc1` the survivor count [2] was 5 of 6, the survivor count [3] was 1 of 6 and the survivor count [4] was 0 of 6.
For `N#C[S-].N#C[S-].N#C[S-].N#C[S-].[Cr+6].[NH2-].[NH2-]`, the survivor count (dose: 100.0 mg/kg/injection, schedule: Q04DX003 (ip), vehicle: saline) was 3 of 6.
With `CCC(COC(=O)c1ccc(N(CC)CC)cc1)NC1CCCCC1` (configuration not stated) the survivor count [5] was 0 of 6.
